Publication PMC13365592
These are yes or no findings as the source states them, for the method shown. Binding seen in cells or lysates may run through a third protein. A result given as binding can be weak or reduced; the word gives no strength.

Target: T1, MEL_369 (melbournevirus)
T1 sequence: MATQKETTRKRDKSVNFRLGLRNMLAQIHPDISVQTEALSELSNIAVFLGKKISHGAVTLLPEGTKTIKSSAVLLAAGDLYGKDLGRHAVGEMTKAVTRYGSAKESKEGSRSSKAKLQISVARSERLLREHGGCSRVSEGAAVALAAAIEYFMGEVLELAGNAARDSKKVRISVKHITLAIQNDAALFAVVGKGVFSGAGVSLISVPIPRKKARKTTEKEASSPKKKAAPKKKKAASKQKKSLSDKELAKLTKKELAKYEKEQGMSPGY
Experiment: cross-linking; intact melbournevirus particles in PBS cross-linked with 5 mM DSSO, 30 min, room temperature, quenched with Tris; then sucrose gradient, digestion, LC-MS; 1% FDR at residue-pair level; PPIs kept only if seen in all three biological replicates

For MEL_206 (melbournevirus), the binding was “binds”.
